# Measurements as given in publication PMC12494553, “A unique gating mechanism revealed by the cryo-EM structure of monomeric ATP9A flippase” (The Journal of Biological Chemistry, 2025).
# Results are given in words; binding and its absence hold for the method and conditions named.
# B1: human ATP9A (enzyme, UniProt O75110 38-1047)
# chain: PRTVWLGHPEKRDQRYPRNVINNQKYNFFTFLPGVLFNQFKYFFNLYFLLLACSQFVPEMRLGALYTYWVPLGFVLAVTVIREAVEEIRCYVRDKEVNSQVYSRLTARGTVKVKSSNIQVGDLIIVEKNQRVPADMIFLRTSEKNGSCFLRTDQLDGETDWKLRLPVACTQRLPTAADLLQIRSYVYAEEPNIDIHNFVGTFTREDSDPPISESLSIENTLWAGTVVASGTVVGVVLYTGRELRSVMNTSNPRSKIGLFDLEVNCLTKILFGALVVVSLVMVALQHFAGRWYLQIIRFLLLFSNIIPISLRVNLDMGKIVYSWVIRRDSKIPGTVVRSSTIPEQLGRISYLLTDKTGTLTQNEMIFKRLHLGTVAYGLDSMDEVQSHIFSIYTQQSQDPPAQKGPTLTTKVRRTMSSRVHEAVKAIALCHNVTPVYESNGVTDQAEAEKQYEDSCRVYQASSPDEVALVQWTESVGLTLVGRDQSSMQLRTPGDQILNFTILQIFPFTYESKRMGIIVRDESTGEITFYMKGADVVMAGIVQYNDWLEEECGNMAREGLRVLVVAKKSLAEEQYQDFEARYVQAKLSVHDRSLKVATVIESLEMEMELLCLTGVEDQLQADVRPTLETLRNAGIKVWMLTGDKLETATCTAKNAHLVTRNQDIHVFRLVTNRGEAHLELNAFRRKHDCALVISGDSLEVCLKYYEYEFMELACQCPAVVCCRCAPTQKAQIVRLLQERTGKLTCAVGDGGNDVSMIQESDCGVGVEGKEGKQASLAADFSITQFKHLGRLLMVHGRNSYKRSAALSQFVIHRSLCISTMQAVFSSVFYFASVPLYQGFLIIGYSTIYTMFPVFSLVLDKDVKSEVAMLYPELYKDLLKGRPLSYKTFLIWVLISIYQGSTIMYGALLLFESEFVHIVAISFTSLILTELLMVALTIQTWHWLMTVAELLSLACYIASLVFLHEFIDVYFIATLSFLWKVSVITLVSCLPLYVLKYLRRRFSPPSYSKLTS
# Target: human ATP9A (human) (UniProt O75110)
# Assay: cryo-EM structure; single-particle cryo-EM of purified ATP9A at 8 mg/ml in 0.06% glyco-diosgenin, 20 mM Mes-Tris pH 6.5, 200 mM NaCl, 5 mM MgCl2, with BeF (also AlF or AMPPCP samples); both purified
binder,measurement,value
B1,binding,no binding
